From PubChem BioAssay record AID1159506 (NCATS, 2015).

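Luminescence from an EWS-FLI1 target-promoter (NR0B1) reporter, set against a CMV-promoter reporter, two days after silencing single genes in TC32 Ewing sarcoma cells. Each siRNA was applied at 20 nM. A z-score of the log NR0B1-over-CMV signal, less the median of siRNAs with the same seed; more negative means a stronger specific loss of the NR0B1 reporter.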

This is part of the screen; most of the strongest results are not listed here. Sequences are the guide (antisense) strand, without overhang.

| # | siRNA | target gene | seed-corrected z-score |
|---|---|---|---|
| 1 | `UGAUUACCAAAGGAAUUUC` | WDR88 | 0.03249 |
| 2 | `UCGUAUUUCCCGAUAAAGC` | BEND2 | 0.4283 |
| 3 | `UCUUUAUCUGGUGCAACCA` | DYNLRB1 | -0.00699 |
| 4 | `UUAGCUUCAAGUCUACUGG` | INTS7 | 0.01359 |
| 5 | `GACAUCUAGACGGCGUUGC` | PLAC9 | 0.4936 |
| 6 | `UUCGUUCAUAUUGAUUUCG` | STX8 | 0.4232 |
| 7 | `UCAUAGACACUGCUGUAGG` | EIF3C | 0.7979 |
| 8 | `AAUGAUGUCAUUCCUCUGC` | TSPYL6 | -0.02278 |
| 9 | `UGUCAUAUAACUGGUAACC` | MCCC2 | 1.243 |
| 10 | `UUUACGAAAAGUCAGAUUC` | ALKBH2 | -0.1898 |
| 11 | `AUAGCUGUAAAUGGGACUC` | CDK15 | -0.03511 |
| 12 | `AUAUUUGUCUGCUAAAUGG` | ZNF761 | -0.402 |
| 13 | `UUAUUCUCGAACAAGAGGC` | HSD11B1L | -0.4546 |
| 14 | `UCAUAUAUCUUUUCAGGAC` | NDUFB5 | 0.4286 |
| 15 | `UUCACCUUGACCGUGUUCC` | TECTA | 0.6389 |
| 16 | `UUCUCGAUAACAUUCAUCA` | RFC2 | -0.5158 |
| 17 | `UUUGAAUCAUCUGAGGAGG` | ZDHHC5 | 0.7196 |
| 18 | `AAUAGACCAUGUAAAUUCC` | PHF6 | 0.6925 |
| 19 | `AUACAUAUCUCAGCUGUCC` | TMEM65 | 0.2517 |
| 20 | `UAGCUAUAAAGGUCUUGAG` | CLCN2 | -0.7775 |
| 21 | `AGAAGGACCAGACAUAGAG` | TMEM208 | 0.9088 |
| 22 | `UCUGAGAUAAGUCUGGGUU` | METTL17 | 0.2599 |
| 23 | `UGUUGUAACUGGUCCGAGG` | BDP1 | -0.003816 |
| 24 | `UUAGAAAACAGCGCGCACC` | CUTA | 0.8663 |
| 25 | `UCCGUUUUUCUGGACAGCG` | DMRT3 | 1.024 |
| 26 | `UACGCAAUAGAAUCAGAUC` | ADD1 | -0.3712 |
| 27 | `UGCUCGUUCAGCGUGUAGC` | ZNF517 | -0.2917 |
| 28 | `UUCGAAUUAAGUGGAUUCC` | XRRA1 | 0.1749 |
| 29 | `UUUCACCUCAGCAUACACC` | AGO1 | 0.2632 |
| 30 | `UGAGAUUUAAGUAUCCUUG` | STX19 | 1.028 |
| 31 | `UUAUUUCGUCUUUAAGUUG` | CCSER2 | 1.137 |
| 32 | `UCCUCAACCAUGCUAUUCC` | SLC22A3 | 1.058 |
| 33 | `UAGCUAUCGAUGAAGGGCC` | APEX2 | 0.147 |
| 34 | `AUUGUUGUAUCUAUGACCC` | PROX2 | -1.231 |
| 35 | `UUCCAUUCCACUUGUUAAC` | FBXW7 | 0.4211 |
| 36 | `UCCACUUCUAAGAAGAUAC` | HEMK1 | 0.05571 |
| 37 | `UCGUUCUUAAUUGUUGGUC` | TRAF3IP3 | -0.3591 |
| 38 | `UAUCGUCUGUGAAUAAGUC` | KRTAP27-1 | 0.379 |
| 39 | `UCUCGCACAAUUUCUCUCU` | ACTG2 | -0.0536 |
| 40 | `AAUUGAACCACUGCGAGUU` | TXNDC8 | 0.3987 |
| 41 | `UGAGUCACCCGCACUAUCU` | ACSS1 | -1.321 |
| 42 | `UUUGAAAGUUCUUUCAUGG` | AICDA | 0.2087 |
| 43 | `AAUCUGUUAGAUGACAUCC` | MGARP | -0.6834 |
| 44 | `AUUGUUGCACUUUUGAUUU` | IRAK1BP1 | 0.2182 |
| 45 | `UCAGUUGUAUAGUACUGCC` | USH2A | -0.7012 |
| 46 | `UUGUUGACUGAUAUUAGCC` | SESN3 | 0.3022 |
| 47 | `UCUGAUUCUGGGUAUACUC` | RPRD1B | 0.7309 |
| 48 | `UUUUUCGAGAUCAUUGUUC` | CCDC88A | 0.9764 |
| 49 | `UCUUGUUCCACUCAACAGC` | BZW2 | 6.15 |
| 50 | `UUCAGUUUGUGAAUGCUCU` | RBM8A | -0.9431 |
| 51 | `UUUGAGCUAAAUUUAGCAC` | IL2 | 0.6715 |
| 52 | `UCAGAGACUCAGUCAGCGG` | NUPR1 | 0.9548 |
| 53 | `UAGUCGAAGGGUAAAGUCG` | LAG3 | -0.2452 |
| 54 | `UUCUUAGACACGGUGGUGA` | MPO | -0.3281 |
| 55 | `UGGGAGCUACAUAUCAUCC` | SIGIRR | 0.1819 |
| 56 | `UUACGUUGCUCUUCUCGCC` | DDX46 | -0.5795 |
| 57 | `UGUAGUUCUUCGGUCUUUC` | CLHC1 | 0.6169 |
| 58 | `UAAUUCACCACCGUGUUCA` | PLBD2 | 0.2739 |
| 59 | `UUUCUACAAUUGUCACCGC` | RPL3L | 0.6158 |
| 60 | `UUACAGGACACGAUGUACU` | ACOT11 | -0.3219 |
| 61 | `UACAUGUCCACAGAAGACC` | BZW2 | -1.099 |
| 62 | `UCAUUUACAACUGCUUCAG` | GSKIP | -0.7413 |
| 63 | `UUAUAUGCUUCGGUUAGGC` | ACOX1 | -0.4268 |
| 64 | `UAGAGUAAGAUGGGCAACC` | ZNF470 | -0.4011 |
| 65 | `UAGAUCAUAGAAGAUAUCC` | SMAD7 | -0.7145 |
| 66 | `UCGGUUGUAACCAAGGCUC` | ALG13 | -0.8777 |
| 67 | `UUUCUUAAUACUCUUCUGC` | BATF | 0.1904 |
| 68 | `AUUGUAACCACUGCCCACC` | KCNA6 | -0.349 |
| 69 | `UCAGGUACCAGGACAGUCC` | CYP27B1 | 0.9598 |
| 70 | `CAUAAGCCAAGUAAUACCU` | SERF1A | -0.4347 |
| 71 | `AUCGUUUGCAAUUACACCC` | LIN54 | -0.5707 |
| 72 | `UUUUGAUCCCUGAUCUUCC` | HIGD1A | 0.8963 |
| 73 | `UUGACUUCUGUAGUCUUGC` | TMCO5B | -0.6196 |
| 74 | `UUUGCGUUUGCUGAUCUUC` | NRF1 | -0.9084 |
| 75 | `UAGGUAAUUCUGUAAGUAC` | CCDC110 | -1.195 |
| 76 | `AAAGGUACAGAGGUCCUCC` | ANKS1A | -0.07331 |
| 77 | `UUAGUUCGAAUCCAAAGUC` | KCTD15 | -0.8286 |

The last 5 entries again:

{"sirna": "UUGACUUCUGUAGUCUUGC", "target gene": "TMCO5B", "seed-corrected z-score": "-0.6196"}
{"sirna": "UUUGCGUUUGCUGAUCUUC", "target gene": "NRF1", "seed-corrected z-score": "-0.9084"}
{"sirna": "UAGGUAAUUCUGUAAGUAC", "target gene": "CCDC110", "seed-corrected z-score": "-1.195"}
{"sirna": "AAAGGUACAGAGGUCCUCC", "target gene": "ANKS1A", "seed-corrected z-score": "-0.07331"}
{"sirna": "UUAGUUCGAAUCCAAAGUC", "target gene": "KCTD15", "seed-corrected z-score": "-0.8286"}